These are yes or no findings as the source states them, for the method shown. In cells and extracts the contact can be indirect. Some binding calls cover weakened binding; strength is not graded here. Sequences can lack the tags named with a protein.
Biological target: T1, GFP-tagged LPA3 receptor (UniProt Q9UBY5)
T1 sequence: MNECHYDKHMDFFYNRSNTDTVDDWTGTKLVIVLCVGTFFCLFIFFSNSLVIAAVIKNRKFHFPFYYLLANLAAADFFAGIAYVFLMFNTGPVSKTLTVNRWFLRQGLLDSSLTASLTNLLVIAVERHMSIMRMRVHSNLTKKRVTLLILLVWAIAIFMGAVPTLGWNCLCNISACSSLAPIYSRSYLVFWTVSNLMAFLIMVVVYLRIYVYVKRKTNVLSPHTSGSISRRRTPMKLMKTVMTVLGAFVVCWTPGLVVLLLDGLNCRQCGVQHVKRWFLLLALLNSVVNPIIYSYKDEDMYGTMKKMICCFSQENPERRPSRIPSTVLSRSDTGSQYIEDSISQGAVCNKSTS
Experiment: FRET or BRET

By UniProt entry, the sequences of proteins in these tests, tags left out.
UniProt P32121: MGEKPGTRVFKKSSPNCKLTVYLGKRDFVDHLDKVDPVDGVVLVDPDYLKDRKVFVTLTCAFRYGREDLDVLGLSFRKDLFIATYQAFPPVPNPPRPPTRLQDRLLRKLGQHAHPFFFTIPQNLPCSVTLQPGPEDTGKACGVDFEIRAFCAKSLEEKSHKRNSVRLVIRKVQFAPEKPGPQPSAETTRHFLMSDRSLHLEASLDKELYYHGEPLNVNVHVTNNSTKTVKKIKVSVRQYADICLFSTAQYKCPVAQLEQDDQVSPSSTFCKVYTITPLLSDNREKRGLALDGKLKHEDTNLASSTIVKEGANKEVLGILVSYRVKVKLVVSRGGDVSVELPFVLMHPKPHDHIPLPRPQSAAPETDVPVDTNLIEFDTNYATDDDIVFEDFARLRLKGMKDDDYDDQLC

“mCherry-tagged β-arrestin 2 (from UniProt P32121 1-409)” was tested, and the binding was “binds”.

From publication doi:10.1101/2024.09.03.611104
